AC50 data for 64 compounds are collected here from PubChem BioAssay AID493014 (National Center for Advancing Translational Sciences (NCATS), 2011).

Some of the results follow. These are further read-outs of the screen, such as a control signal, another cell line or another target. No call is given for them. Compounds called inactive in the main read-out are mostly missing here. Potencies come from curve fits of mixed quality, noted in brackets.

The experiment can be described thus: qHTS Assay to Find Inhibitors of Chronic Active B-Cell Receptor Signaling. The following applies: ABC-DLBCL IkBa-CBG/CBR reporter, luminescence ratio (green luciferase fused to IkBa over red control in TMD8 lymphoma cells), 4 h. The gist of the method: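 TMD8 human ABC-DLBCL cells with doxycycline-inducible IκBα–green luciferase fusion and unfused red luciferase, in 0.5% FBS medium; compounds up to 46 uM, 4 h at 37C. Green/red luminescence ratio, filter-overlap corrected, fitted to concentration-response curves.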
(In general: Quantitative high-throughput screening tests each substance at several concentrations.)

Where [1] appears, read: measured here: CBR red luminescence, cell number.
[2] abbreviates: measured here: IkBa-CBG green luminescence.

In general, AC50 refers to the concentration at which the activity in the assay is half-maximal. `c1ccc(CCn2c(SCc3ccccc3)nnc2-c2ccncc2)cc1`: under setting [1], the AC50 was 9.2 µM [falling, partial curve, poor fit].

`CCCn1c(SCC(=O)c2cc(OC)ccc2OC)nnc1-c1ccco1`: the AC50 under setting [1] is 15.8 µM [falling, partial curve, poor fit].

As to `CCOC(=O)c1c(NC(=S)Nc2cccc(C)c2)sc2c1CC(C)(C)SC2`, the AC50 under setting [1] was 8.2 µM [falling, partial curve].

As for `CN(C)CCCNC(=O)/C(=C\c1ccc(-c2cccc([N+](=O)[O-])c2)o1)NC(=O)c1ccccc1`, under setting [1], the AC50 was 14.1 µM [falling, partial curve, poor fit].

For the compound `Cc1cc(C(=O)NNC(=S)NC2CCCCC2)cs1`, under setting [1], the half-maximal activity concentration (AC50) is 10 µM [falling, partial curve, poor fit].

On to `O=C(NCCCN1CCOCC1)C1COc2ccccc2O1` (centres undefined), for which the AC50 under setting [1] is 6.31 µM [rising, partial curve, poor fit].

`O=C(CN1CCOCC1)Nc1ccc(Cl)c(Cl)c1`: the AC50 under setting [1] is 0.398 µM [rising, full curve, poor fit].

Turning to `COc1ccc2nc(Nc3ccccc3)sc2c1`, the AC50 under setting [1] is 35.5 µM [falling, single point].

Turning to `Cc1ccc(N2CN=C(c3ccccc3)NC2=S)cc1`, under setting [1], the AC50 is 29.1 µM [falling, single point].

As to `COc1ccc(Br)cc1C1Nc2cccc3cccc(c23)N1`, the AC50 under setting [1] is 35.5 µM [falling, single point].

`CCC(=O)Nc1ccccc1C(=O)N1CCCC1`: the AC50 under setting [1] was 0.058 µM [rising, full curve, poor fit].

For the compound `CC(C)(C)c1ccc(C(=O)NC(=S)NCc2cccnc2)cc1`, the AC50 under setting [1] is 29.1 µM [falling, single point].

Take `COc1cccc(/C=C2\SC(=S)N(C(C)C(=O)NC3C=CS(=O)(=O)C3)C2=O)c1` (centres undefined): the AC50 under setting [1] was 17.8 µM [falling, single point].

For the compound `CCOc1ccccc1NC(=O)c1nnn(-c2ccc3c(c2)OCCO3)c1N`, the AC50 under setting [1] was 1.58 µM [falling, full curve, poor fit].

Turning to `Cc1cc(=O)n2[nH]c(N)c(N=Nc3ccccc3F)c2n1`, the AC50 under setting [1] is 10.3 µM [falling, partial curve, poor fit].

`Cc1ccc(S(=O)(=O)N(CC(=O)N=Nc2c(O)[nH]c3ccccc23)c2ccc(C)c(C)c2)cc1`: under setting [2], the AC50 is 20.6 µM [rising, partial curve, poor fit].

`Nc1nn(-c2ccccc2)c(N)c1N=Nc1cccc(F)c1`: the AC50 under setting [1] was 11.2 µM [falling, partial curve].

On to `CC(C)(C)c1ccc(OC(=O)c2ccccc2)cc1`, for which, under setting [1], the AC50 was 31.6 µM [rising, single point].

Take `Cc1ccc(NC(=O)c2cccs2)cc1`: the AC50 under setting [1] is 20.6 µM [falling, single point].

On to `c1ccc(N2CCN(c3nc4ccccc4[nH]3)CC2)nc1`, for which, under setting [1], the AC50 is 11.2 µM [falling, partial curve, poor fit].

On to `Cn1nnnc1Sc1ncnc2scc(-c3cc4ccccc4o3)c12`, for which the AC50 under setting [1] is 2.91 µM [falling, full curve].

For `CCN(CC)C(=O)CSc1nc2ccsc2c(=O)n1Cc1ccccc1Cl`, the AC50 under setting [1] was 8.91 µM [falling, partial curve].

Consider `CC(CN1CCOCC1)OC(=O)/C=C/c1ccccc1` (centres undefined), for which the AC50 under setting [1] is 3.16 µM [rising, full curve, poor fit].

Turning to `COc1ccc(NC(=O)COC(=O)c2ccc(-n3cnnn3)cc2)c([N+](=O)[O-])c1`, the AC50 under setting [1] was 8.2 µM [rising, partial curve, poor fit].

For `COc1ccc(C(=O)NNC(=O)CCn2nnc(-c3ccc(C)cc3)n2)cc1OC`, under setting [1], the AC50 was 20 µM [falling, partial curve, poor fit].

Regarding `NC(=O)Nc1ccc(Oc2ncc(C(F)(F)F)cc2Cl)cc1`, the AC50 under setting [1] was 20 µM [rising, single point].

Turning to `CCC(=O)OCCNc1nc(-c2ccccc2)nc2ccccc12`, under setting [1], the AC50 was 8.91 µM [falling, partial curve, poor fit].

`Cc1cc(C)c2nc(SC(C)C#N)cc(C)c2c1` (centres undefined): under setting [1], the AC50 was 25.9 µM [rising, single point].

As to `Oc1ccc(/C(Cc2ccccn2)=N\Nc2ccccc2)c(O)c1`, the AC50 under setting [1] was 6.31 µM [falling, single point].

With `CC(C)(C)C(=O)/C(=C/c1ccncc1)n1cncn1`, the AC50 is 6.31 µM [falling, partial curve] under setting [1] and 7.94 µM [rising, partial curve, poor fit] under setting [2].

For `O=C(Nc1ccccc1F)c1ccc(S(=O)(=O)NCC2CCCO2)cc1` (centres undefined), under setting [1], the AC50 was 15.8 µM [falling, single point].

Take `COc1cc2c(cc1OC)/C(=C/C(=O)c1ccc(F)cc1)NCC2`: under setting [1], the AC50 is 3.98 µM [rising, full curve, poor fit].

In the case of `CCN1CCN(c2nc(-c3ccccc3)c3ccccc3n2)CC1`, the AC50 under setting [1] is 0.631 µM [falling, full curve, poor fit].

For `Clc1ccc(CSc2snnc2-c2ccccc2)cc1`, under setting [1], the AC50 was 13 µM [rising, partial curve, poor fit].

As to `O=C(CCCc1cccs1)Nc1nc(-c2ccc(F)cc2)cs1`, the AC50 under setting [1] is 29.1 µM [rising, single point].

For the compound `CCOC(=O)CSCC(=O)N1N=C(c2cccs2)CC1c1ccc(F)cc1` (centres undefined), the AC50 under setting [1] is 23.1 µM [falling, single point].

As to `COc1cccc(C(=O)Nc2cc3c4c(c2)CC(=O)N4CCC3)c1`, the AC50 under setting [1] was 11.6 µM [falling, partial curve].

For the compound `COc1ccc(/C=C/C(=O)NCCCn2ccnc2)cc1`, the AC50 under setting [1] is 4.61 µM [rising, partial curve, poor fit].

As to `Cc1cccc(NC(=O)c2onc3c2CCCC3)n1`, the AC50 runs as follows: under setting [1], 29.1 µM [falling, single point]; under setting [2], 20.6 µM [falling, partial curve, poor fit].

For `Cc1ccc(NC2=C/C(=N/S(=O)(=O)c3cccs3)c3ccccc3C2=O)cc1`, under setting [1], the AC50 is 2.59 µM [falling, full curve, poor fit].

As for `Cc1csc(NC(=S)Nc2cccc(Cl)c2)n1`, the AC50 under setting [1] is 29.1 µM [falling, single point] and the AC50 under setting [2] was 20.6 µM [falling, partial curve].

On to `COc1ccc(C(=O)Nc2ccc(Br)cc2F)cc1S(=O)(=O)N1CCCC1`, for which the AC50 under setting [1] is 18.4 µM [falling, partial curve, poor fit].

On to `CCOC(=O)c1cc2c(ccn2-c2ccc(F)cc2)n1CC(=O)N(CC)CC`, for which, under setting [1], the AC50 was 35.5 µM [falling, single point].

As to `CCOC(=O)c1ccc(NC(=O)c2nc[nH]c2C(=O)NCC(=O)OC(C)(C)C)cc1`, under setting [1], the half-maximal activity concentration (AC50) is 0.501 µM [rising, full curve, poor fit].

In the case of `NC(=O)NN=C1C2CCCC1C(c1ccccc1)NC2c1ccccc1` (centres undefined), the AC50 under setting [1] is 11.2 µM [falling, single point].

With `c1ccc(-c2n[nH]c(-c3ccccn3)n2)cc1`, under setting [1], the AC50 is 14.6 µM [falling, single point].

Turning to `CC1(C)CC(=O)C=C(NC2CCCCCCC2)C1`, the AC50 under setting [1] is 20.6 µM [falling, single point].

Take `O=C(N/N=C/c1ccc(-n2ccnc2)cc1)c1cccs1`: the AC50 under setting [1] is 1.78 µM [falling, partial curve, poor fit].

For the compound `CCOc1ccc(CNC(=O)CCSCc2ccccc2F)cc1OC`, the AC50 under setting [1] was 7.94 µM [rising, partial curve, poor fit].

As to `O=c1c2ccccc2nc(SCc2ccc([N+](=O)[O-])cc2)n1-c1ccccc1`, under setting [1], the half-maximal activity concentration (AC50) was 8.91 µM [rising, partial curve, poor fit].

Consider `Cc1cc(N/C=C/C(=O)c2cccs2)ccc1F`, for which the AC50 under setting [1] is 11.2 µM [falling, partial curve, poor fit].

For the compound `COc1ccc2nc(N3CCCCC3)c(C#N)cc2c1`, the AC50 under setting [1] was 0.794 µM [rising, full curve, poor fit].

Regarding `COc1ccc(C(C)=O)cc1COC(=O)CNC(=O)c1ccccc1F`, the AC50 under setting [1] was 29.1 µM [rising, single point].

Turning to `COCCNC(=S)N/N=C(\C)c1ccc2cc(OC)ccc2c1`, the AC50 reads like this: under setting [1], 0.13 µM [falling, full curve, poor fit]; under setting [2], 7.31 µM [falling, partial curve].

`CC(=O)Nc1ccc(O)c(-c2nc3ccccc3s2)c1`: the AC50 under setting [1] was 10 µM [falling, partial curve, poor fit].

For the compound `Cc1[nH]c(=O)[nH]c(=O)c1S(=O)(=O)N1c2ccc(F)cc2CCC1C` (centres undefined), the AC50 under setting [1] is 2.31 µM [rising, partial curve, poor fit].

Regarding `CC1(C)CC(=O)c2cc(C(=O)NCc3ccco3)c(=O)n(-c3ccc(Cl)cc3)c2C1`, the AC50 under setting [1] was 23.1 µM [falling, partial curve, poor fit].

In the case of `O=C1OCC(CO)(CO)N=C1NNc1ccc(Cl)c(Cl)c1`, the AC50 under setting [1] is 5.62 µM [rising, single point].

Consider `COC(=O)Nc1ccc(SCC(=O)c2cccc([N+](=O)[O-])c2)cc1`, for which the half-maximal activity concentration (AC50) runs as follows: under setting [1], 25.1 µM [rising, single point]; under setting [2], 35.5 µM [falling, single point].

For the compound `O=C(c1ccccc1)N1CCN(C2CCCCC2)CC1`, the AC50 under setting [1] was 14.6 µM [rising, single point].

On to `COC(=O)/C(C#N)=C/c1c(Oc2cc(C)cc(C)c2)nc2ccccn2c1=O`, for which the AC50 under setting [1] is 35.5 µM [rising, single point].

As for `COc1ccccc1/C=C1\C(=O)Nc2ccccc21`, under setting [1], the AC50 was 11.2 µM [falling, partial curve].

Regarding `COc1cc(OC)c(-c2nn3c(-c4ccco4)nnc3s2)cc1OC`, the AC50 under setting [1] was 1.78 µM [rising, full curve, poor fit].

Consider `COc1ccccc1NC(=O)C[n+]1ccccc1`, for which the AC50 under setting [1] is 6.31 µM [falling, full curve, poor fit].
